In assay [1] the target is Human serum albumin (human) (UniProt P02768). Put plainly: ELISA of recombinant phage on coated proteins, anti-M13-HRP.
For assay [2] the target is unchanged. The experiment in a line: phage ELISA, clones with higher absorbance than on BSA, sequenced. On the technique in general: In an ELISA, binding on a coated surface is turned into a signal by an enzyme label.
Assay [3] has the same target. The experiment in a line: phage ELISA: recombinant phage on wells coated with 5 µg/ml protein, HRP anti-M13 antibody, TMB, absorbance at 450 nm.
For assay [4], the target named is Human MyD88 (human) (UniProt Q99836). Put plainly: ELISA of recombinant phage on coated proteins, anti-M13-HRP.
Assay [5] has the same target. Put plainly: phage ELISA, clones with higher absorbance than on BSA, sequenced.
The target is the same in assay [6]. The experiment in a line: phage ELISA: recombinant phage on wells coated with 5 µg/ml protein, HRP anti-M13 antibody, TMB, absorbance at 450 nm.
Another assay deals with VEGF121 (human) (UniProt P15692). The experiment in a line: phage ELISA, clones with higher absorbance than on BSA, sequenced.

Chains of the proteins cited; added tags and fusions are not shown. Lines headed by an entry give the natural chain unless they say otherwise; changes in a name come on top. A line that says so, or that is headed by a name, gives the form on record, which may keep a tag or linker. Residues count along the entry.
UniProt P02768, residues 25-609: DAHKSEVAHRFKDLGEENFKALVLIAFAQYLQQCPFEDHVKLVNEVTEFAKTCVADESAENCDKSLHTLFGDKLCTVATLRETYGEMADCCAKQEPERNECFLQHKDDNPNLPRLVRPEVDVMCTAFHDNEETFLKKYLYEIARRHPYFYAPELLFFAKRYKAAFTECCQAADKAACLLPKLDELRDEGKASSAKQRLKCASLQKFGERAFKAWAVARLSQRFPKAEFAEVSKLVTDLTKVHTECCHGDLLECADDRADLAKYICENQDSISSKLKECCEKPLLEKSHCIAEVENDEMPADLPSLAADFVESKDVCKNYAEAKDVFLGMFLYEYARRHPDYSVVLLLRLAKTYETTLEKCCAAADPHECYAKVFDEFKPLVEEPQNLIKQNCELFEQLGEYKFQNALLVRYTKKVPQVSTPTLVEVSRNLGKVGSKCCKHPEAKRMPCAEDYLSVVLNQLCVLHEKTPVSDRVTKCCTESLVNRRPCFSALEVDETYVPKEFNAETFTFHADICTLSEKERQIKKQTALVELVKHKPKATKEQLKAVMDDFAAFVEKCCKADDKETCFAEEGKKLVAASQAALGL
UniProt Q99836: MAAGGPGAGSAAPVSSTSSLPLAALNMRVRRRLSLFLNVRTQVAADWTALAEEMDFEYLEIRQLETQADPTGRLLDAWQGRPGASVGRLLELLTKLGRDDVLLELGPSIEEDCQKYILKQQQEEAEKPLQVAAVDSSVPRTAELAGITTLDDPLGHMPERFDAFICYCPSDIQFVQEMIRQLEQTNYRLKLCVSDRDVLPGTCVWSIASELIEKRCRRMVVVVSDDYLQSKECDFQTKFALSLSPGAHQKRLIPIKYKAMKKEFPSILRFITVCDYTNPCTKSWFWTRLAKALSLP
VEGF121 (P15692, form named): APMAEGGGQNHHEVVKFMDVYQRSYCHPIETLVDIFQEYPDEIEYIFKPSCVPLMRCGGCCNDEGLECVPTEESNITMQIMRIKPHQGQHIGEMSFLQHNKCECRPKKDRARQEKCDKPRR

These are yes or no findings as the source states them, for the method shown. Some binding calls cover weakened binding; strength is not graded here.

B1: Peptide 1 specific to HSA (bipodal-peptide binder) (peptide)
peptide: AASPYKGSWTWENGKWTWKGGWRMKM
For B1, the binding result in assay [1], in assay [2] and in assay [3] was “binds” throughout.

B2: Peptide 1 specific to MyD88 (bipodal-peptide binder) (peptide)
peptide: HSHAFYGSWTWENGKWTWKGNPGWWT
In the case of B2, the binding entry in the assay with Human MyD88 (human) [4], in the assay with Human MyD88 (human) [5] and with Human MyD88 (human) [6] was “binds” throughout.

B3: Peptide 4 specific to VEGF (bipodal-peptide binder) (peptide)
peptide: YGAYPWGSWTWENGKWTWKGWRVSRD
With B3, the binding entry (in assay [2]; with VEGF121 (human)) was “binds” throughout.

B4: Peptide 2 specific to HSA (bipodal-peptide binder) (peptide)
peptide: SANSLYGSWTWENGKWTWKGTSRQRW
As to B4, the binding result in assay [2] is given as “binds”.

B5: Peptide 2 specific to MyD88 (bipodal-peptide binder) (peptide)
peptide: ASTINFGSWTWENGKWTWKGYTRRWN
For the molecule B5, the binding result with Human MyD88 (human) [5] was “binds”.

B6: Peptide 5 specific to HSA (bipodal-peptide binder) (peptide)
peptide: YAHFGWGSWTWENGKWTWKGTTDSQS
As for B6, the binding entry in assay [2] is reported as “binds”.

B7: Peptide 3 specific to HSA (bipodal-peptide binder) (peptide)
peptide: YAHVYYGSWTWENGKWTWKGHRVTQT
Regarding B7, the binding result in assay [2] is given as “binds”.

The record behind these values is US20110152500A1.
